Values from PubChem BioAssay AID1053208 (Peter MacCallum Cancer Centre, 2014)
The deposit covers about 17,000 reagents; below is a part drawn at random. 788 of all reagents (4.7%) count as active. 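Calls rest on z-score classes alone; an extra cut-off of viability at most 70% of control was not applied to them.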 Further read-outs or replicates are left out here.

Assay: 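Find knock-downs that sensitise mouse osteosarcoma cells to doxorubicin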 (primary screen)
Cells: mouse osteosarcoma cells, early-passage culture from an engineered mouse model of fibroblastic bone tumour
Reagent: siRNA pool against mouse genes, 40 nM
Time to read-out: about 120 h (48 h before drug, then 72 h with drug)
Conditions: doxorubicin 100 nM for 72 h, roughly 30-40% inhibitory dose
Measured: 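Luminescent ATP signal taken as viability with or without 100 nM doxorubicin for 72 h; mean of two wells set against non-targeting siRNA and turned into robust z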
Scale: viability z-score with doxorubicin: higher = more viable cells under doxorubicin; viability z-score without drug: higher = more viable cells with knock-down alone
Call rule: 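Called active if knock-down leaves viability unchanged without drug (z within -2 to 2) but lowers it with doxorubicin (z at or under -2)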

Cep97
- combined z-score class: no change with or without drug
- viability z-score with doxorubicin: 0.45
- viability z-score without drug: 0.51
- activity call: inactive

S1pr2
- combined z-score class: no change with or without drug
- viability z-score with doxorubicin: -0.45
- viability z-score without drug: -0.67
- activity call: inactive

Ceacam12
- combined z-score class: no change with or without drug
- viability z-score with doxorubicin: 0.34
- viability z-score without drug: 1.18
- activity call: inactive

4931431C16Rik
- combined z-score class: high cell count with doxorubicin only
- viability z-score with doxorubicin: 3.26
- viability z-score without drug: 1.69
- activity call: inactive

Anln
- combined z-score class: low cell count without drug only
- viability z-score with doxorubicin: -1.46
- viability z-score without drug: -2.53
- activity call: inactive

Gart
- combined z-score class: no change with or without drug
- viability z-score with doxorubicin: 1.35
- viability z-score without drug: -0.17
- activity call: inactive

Mptx1
- combined z-score class: high cell count without drug only
- viability z-score with doxorubicin: 0.79
- viability z-score without drug: 2.02
- activity call: inactive

Atp5f1b
- combined z-score class: no change with or without drug
- viability z-score with doxorubicin: -0.45
- viability z-score without drug: -0.51
- activity call: inactive

Susd4
- combined z-score class: no change with or without drug
- viability z-score with doxorubicin: 0.11
- viability z-score without drug: 0
- activity call: inactive

Or5ac21
- combined z-score class: no change with or without drug
- viability z-score with doxorubicin: 0.34
- viability z-score without drug: 0.51
- activity call: inactive

Yod1
- combined z-score class: no change with or without drug
- viability z-score with doxorubicin: -0.22
- viability z-score without drug: -0.51
- activity call: inactive

Nemp1
- combined z-score class: no change with or without drug
- viability z-score with doxorubicin: 0.67
- viability z-score without drug: 0.17
- activity call: inactive

Lrrc31
- combined z-score class: no change with or without drug
- viability z-score with doxorubicin: -1.46
- viability z-score without drug: 0.51
- activity call: inactive

Vegfd
- combined z-score class: no change with or without drug
- viability z-score with doxorubicin: -0.22
- viability z-score without drug: 0.17
- activity call: inactive

Mtus2
- combined z-score class: no change with or without drug
- viability z-score with doxorubicin: 1.57
- viability z-score without drug: 0.84
- activity call: inactive

Hnrnpc
- combined z-score class: no change with or without drug
- viability z-score with doxorubicin: -1.57
- viability z-score without drug: 0.84
- activity call: inactive

Tmc5
- combined z-score class: no change with or without drug
- viability z-score with doxorubicin: 1.35
- viability z-score without drug: 0.51
- activity call: inactive

Itga9
- combined z-score class: low cell count with and without drug
- viability z-score with doxorubicin: -2.92
- viability z-score without drug: -2.19
- activity call: inactive

Plekha2
- combined z-score class: low cell count with doxorubicin only
- viability z-score with doxorubicin: -3.15
- viability z-score without drug: -1.18
- activity call: active

Fam20b
- combined z-score class: no change with or without drug
- viability z-score with doxorubicin: 0
- viability z-score without drug: 0.67
- activity call: inactive

2610318N02Rik
- combined z-score class: no change with or without drug
- viability z-score with doxorubicin: 0.56
- viability z-score without drug: -1.52
- activity call: inactive

Bacc1
- combined z-score class: no change with or without drug
- viability z-score with doxorubicin: -1.01
- viability z-score without drug: -0.84
- activity call: inactive

Ehmt2
- combined z-score class: no change with or without drug
- viability z-score with doxorubicin: 0.34
- viability z-score without drug: 0.17
- activity call: inactive

Vmn1r216
- combined z-score class: no change with or without drug
- viability z-score with doxorubicin: 0.9
- viability z-score without drug: -0.51
- activity call: inactive

Lrp2bp
- combined z-score class: low cell count with doxorubicin only
- viability z-score with doxorubicin: -2.92
- viability z-score without drug: 1.01
- activity call: active

Or2ag16
- combined z-score class: no change with or without drug
- viability z-score with doxorubicin: -0.67
- viability z-score without drug: -0.51
- activity call: inactive

Rbp2
- combined z-score class: no change with or without drug
- viability z-score with doxorubicin: -1.69
- viability z-score without drug: 0.51
- activity call: inactive

Kremen1
- combined z-score class: no change with or without drug
- viability z-score with doxorubicin: 0.56
- viability z-score without drug: 0
- activity call: inactive

Looked up above.
S1pr2, viability z-score with doxorubicin: -0.45
Value of Lrrc31 in “viability z-score without drug”: 0.51
